Laboratory results: PubChem BioAssay AID1159584 (Peter MacCallum Cancer Centre, 2016)

Assay: 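Genes whose loss is lethal only together with E-cadherin loss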 (primary screen)
Cells: human MCF10A breast epithelial cells, parental and CDH1-null
Reagents: siRNA against human genes
Detection: 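Cell viability by CellTiter-Glo ATP luminescence, each line scaled to the mean of mock wells across plates, then CDH1-null over parental ratio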
Reading the numbers: CDH1-null / parental viability ratio: higher = CDH1-null cells survive relatively better than parental; CDH1-null viability vs mock: higher = more viable CDH1-null cells
Units: CDH1-null viability vs mock in fraction of mock
The whole screen tested about 18,000 reagents; below is a part drawn at random. Not all columns of the deposit are shown. Not given: the amount of reagent, the time to read-out.

The opening 2 entries as a preview:
MRPL34 → CDH1-null / parental viability ratio: 1.23; CDH1-null viability vs mock: 0.76
HTN3 → CDH1-null / parental viability ratio: 1.45; CDH1-null viability vs mock: 1

The listing, repeating the preview:
MRPL34 → CDH1-null / parental viability ratio: 1.23; CDH1-null viability vs mock: 0.76
HTN3 → CDH1-null / parental viability ratio: 1.45; CDH1-null viability vs mock: 1
SCUBE3 → CDH1-null / parental viability ratio: 1.3; CDH1-null viability vs mock: 1.13
SPANXN5 → CDH1-null / parental viability ratio: 0.86; CDH1-null viability vs mock: 0.74
ALG11 → CDH1-null / parental viability ratio: 0.95; CDH1-null viability vs mock: 0.74
CCNY → CDH1-null / parental viability ratio: 1.16; CDH1-null viability vs mock: 1.02
CMTM1 → CDH1-null / parental viability ratio: 1.11; CDH1-null viability vs mock: 0.73
CAV3 → CDH1-null / parental viability ratio: 0.9; CDH1-null viability vs mock: 0.76
CYP2A6 → CDH1-null / parental viability ratio: 0.92; CDH1-null viability vs mock: 0.96
IMMT → CDH1-null / parental viability ratio: 0.93; CDH1-null viability vs mock: 0.86
ZNF665 → CDH1-null / parental viability ratio: 1.1; CDH1-null viability vs mock: 0.55
GUCY1A1 → CDH1-null / parental viability ratio: 1.16; CDH1-null viability vs mock: 0.86
SPN → CDH1-null / parental viability ratio: 0.78; CDH1-null viability vs mock: 0.7
SPATA31D1 → CDH1-null / parental viability ratio: 1.13; CDH1-null viability vs mock: 0.51
